From PubChem BioAssay AID493014 (National Center for Advancing Translational Sciences (NCATS), 2011)
Among all 340,000 compounds or so, about 170 (0.05%) were called active. Inconclusive means that the source gave no clear call. Such entries were picked first, then a sample of the others. Calls follow the shape of the dose curve; as a rule, active = well fitted inhibition curve with a large enough effect in the signal ratio, with a control signal flat (not every such curve was filed as active); inconclusive = small, poorly fitted or top-dose-only effect, or effect the other way, or a change in a side signal; inactive = flat fitted curve, though single readings scatter; the % refers to the signal ratio. Potencies of inconclusive entries are doubtful fits and often do not repeat.

Experiment: qHTS Assay to Find Inhibitors of Chronic Active B-Cell Receptor Signaling;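 as to activity change, negative = inhibition: plate controls were basal doxycycline-induced cells for no effect and cells given 10 µM MG132 for full effect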
Conditions: ABC-DLBCL IkBa-CBG/CBR reporter, luminescence ratio (green luciferase fused to IkBa over red control in TMD8 lymphoma cells), 4 h; activity change, negative = inhibition: at 46.1 µM (top of the series)
Outline: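 TMD8 ABC-DLBCL cells carrying doxycycline-inducible green luciferase fused to IkappaBalpha plus unfused red luciferase were exposed to compounds (up to 46 uM) for 4 hrs at 37C. Activity came from the overlap-corrected green/red luminescence ratio.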
Potency is read from the fitted curve at half-maximal effect.

| Structure (SMILES) | activity change, negative = inhibition | Potency |
| --- | --- | --- |
| COc1cc(C(=O)N2CCN(S(=O)(=O)c3ccc(C)cc3C)CC2)ccc1OCC(=O)N1CCOCC1 | inconclusive: -3.05% | – |
| Fc1ccccc1Nc1ncnc2c1nnn2Cc1ccccc1 | – | inconclusive: 17.8 µM [falling, partial curve] |
| CCOc1ccc(NC(=O)CSc2nc3ccsc3c(=O)n2C(C)CC)cc1 (stereo not given) | inactive | – |
| O=C(N/N=C\c1ccc(F)cc1)c1csnn1 | inconclusive: -29.3% | – |
| Cc1ccc(/C=C/C(=O)N2CCN(S(=O)(=O)c3c(C)c(C)cc(C)c3C)CC2)o1 | inactive | – |
| CCN(Cc1ccncc1)C(=O)c1cccc(S(=O)(=O)N2CCOCC2)c1 | inconclusive: -5.1% | – |
| C/C(=N/NC(=S)Nc1cccc(C)c1)c1cccc([N+](=O)[O-])c1 | – | inconclusive: 5.62 µM [cytotoxic, single point] |
| COc1ccccc1N=C1SC(C(=O)Nc2ccc(F)cc2)CC(=O)N1C (stereo not given) | – | inconclusive: 29.1 µM [falling, single point] |
| O=C(OCC(=O)N1CCN(C(=O)c2ccco2)CC1)c1ccccc1O | inconclusive: -7.31% | – |
| CCC1(CC)Cc2ccccc2C(Nc2c(C)n(C)n(-c3ccccc3)c2=O)=N1 | inconclusive: 19.9% | – |
| COc1ccc(NC(=O)CSc2nc3nc(C)c(Cc4ccc(C)cc4)c(C)n3n2)cc1OC | inactive | – |
| Clc1cccc(/C=N/N2CCN(Cc3ccccc3)CC2)c1 | inconclusive: 11.2% | – |
| Cc1ccc(CC(=O)Nc2nc3ccccc3s2)cc1 | inconclusive: 0.778% | – |
| NNC(=O)c1cc(-c2ccc(O)cc2)nc2ccc(Br)cc12 | inconclusive: -0.201% | – |
| CCOc1ccc(Cl)cc1S(=O)(=O)NCc1ccccn1 | inactive | – |
| CCCOc1ccc(N2C(=O)CC(N(Cc3ccco3)C(=O)CC)C2=O)cc1 (stereo not given) | inconclusive: -4.82% | – |
| Clc1ccc(CNCCCSc2ncccn2)cc1Cl | inactive | – |
| CC1(c2nnc(-c3ccc(F)cc3)o2)CC(c2ccc([N+](=O)[O-])cc2)=NO1 (stereo not given) | inconclusive: 6.25% | – |
| O=C(CCCN1C(=O)c2ccccc2C1=O)Nc1nccs1 | – | inconclusive: 23.1 µM [rising, partial curve] |
| Cc1c(-c2nnc(-c3ccc(C(F)(F)F)cc3)o2)cnn1-c1ccccc1 | – | inconclusive: 0.92 µM [rising, full curve, poor fit] |
| Cc1ccc(-n2ncc3c(NCCCc4ccccc4)ncnc32)cc1 | inactive | – |
| Cc1nn(Cc2ccc(C(=O)Nc3ccccc3F)cc2)c(C)c1Cl | – | inconclusive: 35.5 µM [falling, single point] |
| CCCCNC(=S)NC(=O)c1ccc([N+](=O)[O-])cc1 | inconclusive: 13.1% | – |
| CC1(C)CC2(CCCN(CC(O)(c3ccccc3)c3ccccc3)C2)CCO1 (stereo not given) | inactive | – |
| CCOC(=O)c1ccc2nc(NC(=O)C(C)C)sc2c1 | – | inconclusive: 9.2 µM [falling, partial curve] |
| N#CC1=C(S)N(c2ccc(F)cc2)C(c2ccco2)NC1=O (stereo not given) | – | inconclusive: 35.5 µM [falling, single point] |
| CNC(=O)COC(=O)c1ccc2c(c1)S(=O)(=O)c1ccccc1C2=O | inactive | – |

| Structure (SMILES) | activity change, negative = inhibition | Potency |
| --- | --- | --- |
| O=Cc1nc(-c2ccc(Cl)cc2)n2ccccc12 | inconclusive: -0.34% | – |
| COc1ccc(Cl)cc1NC(=O)CN(C)C(=O)c1sccc1-c1ccccc1 | inconclusive: 0.583% | – |
| O=C(NCc1ccco1)C1CCCN(S(=O)(=O)c2cccc3cccnc23)C1 (stereo not given) | inconclusive: -3.3% | – |
| Cc1ccsc1/C=N\NC(=O)c1n[nH]c2c1CCC2 | – | inconclusive: 4.11 µM [falling, partial curve] |
| CC(C)C(=O)N1CCN(c2ccccc2NC(=O)c2ccco2)CC1 | inconclusive: -1.12% | – |
| COC(=O)[C@]1(Cc2ccccc2)N[C@H](c2ccc(-c3cccc(Cl)c3)cc2)[C@@H]2C(=O)N(C)C(=O)[C@@H]21 | inconclusive: -2.21% | – |
| COc1cccc(NC(=O)Nc2nnc(Cc3ccccc3F)s2)c1 | inconclusive: 1.29% | – |
| Cc1ccc(-n2ncc3c(NCCCN4CCOCC4)ncnc32)cc1Cl | inactive | – |
| Cc1nc(-c2cccc(NC(=O)Cc3ccccc3)c2)cs1 | inconclusive: 1.2% | – |
| O=C(OCCN1CCCC1)C1(c2ccccc2)CCCC1 | – | inconclusive: 2.82 µM [falling, single point] |
| CCC/C(C#Cc1ccsc1)=C1/c2ccccc2C(=O)N1c1ccccc1 | inconclusive: -0.141% | – |
| CC(=O)C(Cc1ccccc1)NC(=O)CN1c2cccc3cccc(c23)S1(=O)=O (stereo not given) | inconclusive: -0.761% | – |
| COc1cccc(NC(=O)c2ccc(S(=O)(=O)N3CCCC3)cc2)c1 | inconclusive: -0.0802% | – |
| COc1cc(C(C(=O)NCc2ccccc2)N(C(=O)c2snc(C(N)=O)c2N)C2CCCC2)cc(OC)c1OC (stereo not given) | inactive | – |
| S=C(Nc1ccc(Cl)c(Cl)c1)NC1CCCCC1 | inconclusive: 0.888% | – |
| Cc1ccccc1NS(=O)(=O)c1ccc(OCC(=O)N2CCCCC2)cc1 | inactive | – |
| COc1ccc(CNC(=O)N2CCN(c3cccc(Cl)c3)CC2)cc1OC | inconclusive: -57.3% | – |
| Cc1ccc(-c2nn(-c3ccccc3)cc2C(=O)N2CCOCC2)cc1 | inconclusive: -1.09% | – |
| CN(C)c1ccc(N=C/C=C2\N(C)c3ccccc3C2(C)C)cc1 | – | inconclusive: 4.47 µM [falling, partial curve] |
| C=CCn1c(CNc2ccccc2)nnc1SCC(=O)N/N=C/c1ccc(O)cc1O | inconclusive: -25.7% | – |
| COC(=O)c1ccc(C(=O)OC)c(=O)[nH]1 | inconclusive: 2.77% | – |
| Cc1c(-c2ccccc2)nc(N)c(C#N)c1-c1cccnc1 | inconclusive: 20.9% | – |
| COc1cc2c(cc1O)C(SC)=NC(C)(C)C2 | – | inconclusive: 20.6 µM [falling, partial curve] |
| COc1ccc([N+](=O)[O-])cc1NC(=O)c1cncc(Br)c1 | inactive | – |
| CCOc1ccccc1N(C(=O)c1snc(C(N)=O)c1N)C(C(=O)NC1CCCC1)c1cccs1 (stereo not given) | inconclusive: 3.35% | – |
| COc1ccccc1C(=O)NCC(=O)OC(C)C(=O)NC1CCCCC1C (stereo not given) | inactive | – |
| O=c1c2c(nc3cc(-c4cccc(F)c4)[nH]n13)CCC2 | – | inconclusive: 3.55 µM [falling, full curve, poor fit] |

Looked up above:
activity change, negative = inhibition with O=C(NCc1ccco1)C1CCCN(S(=O)(=O)c2cccc3cccnc23)C1 (stereo not given) is entered as inconclusive: -3.3%
Potency with COc1cc2c(cc1O)C(SC)=NC(C)(C)C2 is entered as inconclusive: 20.6 µM [falling, partial curve]
activity change, negative = inhibition with COc1cccc(NC(=O)c2ccc(S(=O)(=O)N3CCCC3)cc2)c1 is entered as inconclusive: -0.0802%

Remaining list, next part:

| Structure (SMILES) | activity change, negative = inhibition | Potency |
| --- | --- | --- |
| S=C(Nc1ccc(Cl)cc1)NC1CCCCC1 | – | inconclusive: 22.4 µM [falling, single point] |
| N#Cc1c(N2CCOCC2)nsc1-c1ccc(C(F)(F)F)cc1 | inconclusive: 20.8% | – |
| COc1ccc(CNc2ncnc3cc(OC)c(OC)cc23)cc1 | inactive | – |
| CCc1ccc(N2C(=O)CN(Cc3sccc3C)C2=S)cc1 | inconclusive: 7.07% | – |
| Cc1cc(C)cc(NC(=O)C(=O)NCCCN2CCCC2=O)c1 | inactive | – |
| O=C(Nc1nnc(-c2ccccc2)o1)c1cc(Cl)sc1Cl | inactive | – |
| CN1CCN(C(c2ccc(C(F)(F)F)cc2)c2cc(Cl)c3cccnc3c2O)CC1 (stereo not given) | – | inconclusive: 35.5 µM [falling, single point] |
| COC(=O)c1c(-c2ccc(S(C)(=O)=O)cc2)sc2cc(OC)ccc12 | inconclusive: -3.48% | – |
| Cc1ccc(C(=O)Nc2cccnc2)cc1S(=O)(=O)N1CCCCCC1 | inconclusive: 0.11% | – |
| CCCCOC(=O)CSc1nnc(-c2ccccc2)o1 | – | inconclusive: 7.94 µM [rising, partial curve] |
| O=S(=O)(NCCNS(=O)(=O)c1ccccc1)c1ccccc1 | inconclusive: -11.4% | – |
| COc1ccc(C/C(C)=N/NC(=O)c2ccc(C)cc2C)cc1 | – | inconclusive: 12.6 µM [falling, partial curve, poor fit] |
| Cc1ccc(NC(=O)C2=C(O)c3ccccc3N(C)S2(=O)=O)cc1 | – | inconclusive: 3.66 µM [falling, single point] |
| COc1cc(/C=N/NC(=O)CNC(=O)/C=C/c2ccco2)cc(OC)c1OC | inconclusive: 9% | – |
| Cc1cc(NC(=O)CSc2ncnc3ccccc23)no1 | – | inconclusive: 0.146 µM [falling, full curve, poor fit] |
| C[C@]12CC[C@@H]3c4ccc(O)cc4CC[C@H]3[C@@H]1CCC2=O | inconclusive: -3.89% | – |
| CCCCCC(=O)Nc1sc(C)c(C)c1C#N | inconclusive: 7.47% | – |
| COc1ccc(C2(C)NC(=O)N(CC(=O)NC3CCCC3)C2=O)cc1OC (stereo not given) | inconclusive: -0.233% | – |
| CSc1nc(C(=O)N2CCc3c([nH]c4ccccc34)C2c2ccccn2)cs1 (stereo not given) | – | inconclusive: 35.5 µM [falling, single point] |
| COC(=O)c1ccc(Nc2nnc(-c3ccc(C)c(S(=O)(=O)NCC4CCCO4)c3)c3ccccc23)cc1 (stereo not given) | – | inconclusive: 2.91 µM [falling, full curve] |
| CCOC(=O)c1cc([N+](=O)[O-])sc1NC(=O)c1ccc(S(=O)(=O)N2CC3(C)CC2CC(C)(C)C3)cc1 (stereo not given) | inconclusive: 22.4% | – |
| COC(=O)c1ccc(COc2ccccc2/C=C(\C#N)C(=O)Nc2ccc(C)cc2)cc1 | inconclusive: -11.8% | – |
| COC(=O)/C(=C(O)\C=C\c1ccccc1[N+](=O)[O-])c1nc2ccccc2[nH]1 | – | inconclusive: 10 µM [falling, partial curve] |
| CC(C)=CCCC(C)CN1CCC(N2CCC(C(=O)N3CCCC3)CC2)CC1 (stereo not given) | – | inconclusive: 1.26 µM [rising, partial curve] |
| CCN1C(=O)NC(c2ccc(Cl)cc2)C2=C1CCCC2=O (stereo not given) | inconclusive: 7.33% | – |
| Cc1cc(C)c(NC(=O)CN(C)CC(=O)Nc2cccc(S(=O)(=O)N(C)c3ccccc3)c2)c(C)c1 | – | inconclusive: 20.6 µM [falling, single point] |
